# Reference: the supplement of paper PMC8728848
# Some of the results follow.
# Legend:
# Assay in all cases: glycan array binding signal (z-score within array); higher = stronger binding
# Settings in all cases: glycan notation: IUPAC condensed, linker removed
# [1] = target: Gal(b1-4)GlcNAc(b1-3)Gal(b1-4)GlcNAc(b1-2)Man(a1-3)[Gal(b1-4)GlcNAc(b1-3)Gal(b1-4)GlcNAc(b1-2)Man(a1-6)]Man(b1-4)GlcNAc(b1-4)[Fuc(a1-6)]GlcNAc
# Method in brief: (§1)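 Arrays were curated from the Consortium for Functional Glycomics database, 3228 in total, and kept only where the protein sequence was available. Binding is expressed as a within-array Z-score. This score was averaged across arrays of the same protein sequence at different concentrations or buffers and across linkers, and negative values can be read as non-binding.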
# [2] = target: Gal(b1-4)GlcNAc(b1-3)Gal(b1-4)GlcNAc(b1-2)[Gal(b1-4)GlcNAc(b1-3)Gal(b1-4)GlcNAc(b1-6)]Man(a1-6)[Gal(b1-4)GlcNAc(b1-3)Gal(b1-4)GlcNAc(b1-2)Man(a1-3)]Man(b1-4)GlcNAc(b1-4)GlcNAc
# Method in brief: as §1
# [3] = target: Gal(b1-4)GlcNAc(b1-3)Gal(b1-4)GlcNAc(b1-2)[Gal(b1-4)GlcNAc(b1-3)Gal(b1-4)GlcNAc(b1-6)]Man(a1-6)[Gal(b1-4)GlcNAc(b1-3)Gal(b1-4)GlcNAc(b1-2)Man(a1-3)]Man(b1-4)GlcNAc(b1-4)[Fuc(a1-6)]GlcNAc
# Method in brief: as §1
# [4] = target: Gal(b1-4)GlcNAc(b1-3)Gal(b1-4)GlcNAc(b1-3)Gal(b1-4)GlcNAc
# Method in brief: as §1
# [5] = target: Gal(b1-4)GlcNAc(b1-3)Gal(b1-4)GlcNAc(b1-3)Gal(b1-4)GlcNAc(b1-2)Man(a1-3)[Gal(b1-4)GlcNAc(b1-3)Gal(b1-4)GlcNAc(b1-3)Gal(b1-4)GlcNAc(b1-2)Man(a1-6)]Man(b1-4)GlcNAc(b1-4)GlcNAc
# Method in brief: as §1
# [6] = target: Gal(b1-4)GlcNAc(b1-3)Gal(b1-4)GlcNAc(b1-3)Gal(b1-4)GlcNAc(b1-2)Man(a1-3)[Gal(b1-4)GlcNAc(b1-3)Gal(b1-4)GlcNAc(b1-3)Gal(b1-4)GlcNAc(b1-2)Man(a1-6)]Man(b1-4)GlcNAc(b1-4)[Fuc(a1-6)]GlcNAc
# Method in brief: as §1
# [7] = target: Gal(b1-4)GlcNAc(b1-3)Gal(b1-4)GlcNAc(b1-3)Gal(b1-4)GlcNAc(b1-2)[Gal(b1-4)GlcNAc(b1-3)Gal(b1-4)GlcNAc(b1-3)Gal(b1-4)GlcNAc(b1-6)]Man(a1-6)[Gal(b1-4)GlcNAc(b1-3)Gal(b1-4)GlcNAc(b1-3)Gal(b1-4)GlcNAc(b1-2)Man(a1-3)]Man(b1-4)GlcNAc(b1-4)[Fuc(a1-6)]GlcNAc
# Method in brief: as §1
# [8] = target: Gal(b1-4)GlcNAc(b1-3)Gal(b1-4)GlcNAc(b1-3)Gal(b1-4)GlcNAc(b1-3)Gal(b1-4)GlcNAc(b1-2)Man(a1-3)[Gal(b1-4)GlcNAc(b1-3)Gal(b1-4)GlcNAc(b1-3)Gal(b1-4)GlcNAc(b1-3)Gal(b1-4)GlcNAc(b1-2)Man(a1-6)]Man(b1-4)GlcNAc(b1-4)GlcNAc
# Method in brief: as §1
# [9] = target: Gal(b1-4)GlcNAc(b1-3)Gal(b1-4)GlcNAc(b1-3)Gal(b1-4)GlcNAc(b1-3)Gal(b1-4)GlcNAc(b1-2)Man(a1-3)[Gal(b1-4)GlcNAc(b1-3)Gal(b1-4)GlcNAc(b1-3)Gal(b1-4)GlcNAc(b1-3)Gal(b1-4)GlcNAc(b1-2)Man(a1-6)]Man(b1-4)GlcNAc(b1-4)[Fuc(a1-6)]GlcNAc
# Method in brief: as §1
# [10] = target: Gal(b1-4)GlcNAc(b1-3)Gal(b1-4)GlcNAc(b1-3)Gal(b1-4)GlcNAc(b1-3)Gal(b1-4)GlcNAc(b1-2)[Gal(b1-4)GlcNAc(b1-3)Gal(b1-4)GlcNAc(b1-3)Gal(b1-4)GlcNAc(b1-3)Gal(b1-4)GlcNAc(b1-6)]Man(a1-6)[Gal(b1-4)GlcNAc(b1-3)Gal(b1-4)GlcNAc(b1-3)Gal(b1-4)GlcNAc(b1-3)Gal(b1-4)GlcNAc(b1-2)Man(a1-3)]Man(b1-4)GlcNAc(b1-4)[Fuc(a1-6)]GlcNAc
# Method in brief: as §1
# [11] = target: Gal(b1-4)GlcNAc(b1-3)Gal(b1-4)GlcNAc(b1-3)Gal(b1-4)GlcNAc(b1-3)Gal(b1-4)GlcNAc(b1-3)Gal(b1-4)GlcNAc(b1-2)Man(a1-3)[Gal(b1-4)GlcNAc(b1-3)Gal(b1-4)GlcNAc(b1-3)Gal(b1-4)GlcNAc(b1-3)Gal(b1-4)GlcNAc(b1-3)Gal(b1-4)GlcNAc(b1-2)Man(a1-6)]Man(b1-4)GlcNAc(b1-4)GlcNAc
# Method in brief: as §1
# [12] = target: Gal(b1-4)GlcNAc(b1-3)Gal(b1-4)GlcNAc(b1-3)Gal(b1-4)GlcNAc(b1-3)Gal(b1-4)GlcNAc(b1-3)Gal(b1-4)GlcNAc(b1-2)Man(a1-3)[Gal(b1-4)GlcNAc(b1-3)Gal(b1-4)GlcNAc(b1-3)Gal(b1-4)GlcNAc(b1-3)Gal(b1-4)GlcNAc(b1-3)Gal(b1-4)GlcNAc(b1-2)Man(a1-6)]Man(b1-4)GlcNAc(b1-4)[Fuc(a1-6)]GlcNAc
# Method in brief: as §1
# [13] = target: Gal(b1-4)GlcNAc(b1-3)Gal(b1-4)GlcNAc(b1-3)Gal(b1-4)GlcNAc(b1-3)Gal(b1-4)GlcNAc(b1-3)Gal(b1-4)GlcNAc(b1-2)[Gal(b1-4)GlcNAc(b1-3)Gal(b1-4)GlcNAc(b1-3)Gal(b1-4)GlcNAc(b1-3)Gal(b1-4)GlcNAc(b1-3)Gal(b1-4)GlcNAc(b1-6)]Man(a1-6)[Gal(b1-4)GlcNAc(b1-3)Gal(b1-4)GlcNAc(b1-3)Gal(b1-4)GlcNAc(b1-3)Gal(b1-4)GlcNAc(b1-3)Gal(b1-4)GlcNAc(b1-2)Man(a1-3)]Man(b1-4)GlcNAc(b1-4)[Fuc(a1-6)]GlcNAc
# Method in brief: as §1
# [14] = target: Gal(b1-4)GlcNAc(b1-3)Gal(b1-4)GlcNAc(b1-3)Gal(b1-4)GlcNAc(b1-3)Gal(b1-4)GlcNAc(b1-3)Gal(b1-4)GlcNAc(b1-3)Gal(b1-4)GlcNAc(b1-2)Man(a1-3)[Gal(b1-4)GlcNAc(b1-3)Gal(b1-4)GlcNAc(b1-3)Gal(b1-4)GlcNAc(b1-3)Gal(b1-4)GlcNAc(b1-3)Gal(b1-4)GlcNAc(b1-3)Gal(b1-4)GlcNAc(b1-2)Man(a1-6)]Man(b1-4)GlcNAc(b1-4)GlcNAc
# Method in brief: as §1
# [15] = target: Gal(b1-4)GlcNAc(b1-3)Gal(b1-4)GlcNAc(b1-3)GalNAc
# Method in brief: as §1
# [16] = target: Gal(b1-4)GlcNAc(b1-3)Gal(b1-4)GlcNAc(b1-3)[Gal(b1-4)GlcNAc(b1-3)Gal(b1-4)GlcNAc(b1-6)]GalNAc
# Method in brief: as §1
# [17] = target: Gal(b1-4)GlcNAc(b1-3)Gal(b1-4)GlcNAc(b1-6)[Gal(b1-3)]GalNAc
# Method in brief: as §1
# [18] = target: Gal(b1-4)GlcNAc(b1-3)Gal(b1-4)[Fuc(a1-3)]GlcNAc(b1-3)Gal(b1-4)[Fuc(a1-3)]GlcNAc
# Method in brief: as §1
# [19] = target: Gal(b1-4)GlcNAc(b1-3)GalNAc
# Method in brief: as §1
# [20] = target: Gal(b1-4)GlcNAc(b1-3)[Fuc(a1-3)GlcNAc(b1-6)]Gal(b1-4)Glc
# Method in brief: as §1
# [21] = target: Gal(b1-4)GlcNAc(b1-3)[Gal(b1-4)GlcNAc(b1-6)]Gal(b1-4)GlcNAc
# Method in brief: as §1
# [22] = target: Gal(b1-4)GlcNAc(b1-3)[GlcNAc(b1-6)]Gal(b1-4)GlcNAc
# Method in brief: as §1
# [23] = target: Gal(b1-4)GlcNAc(b1-6)Gal(b1-4)GlcNAc
# Method in brief: as §1
# [24] = target: Gal(b1-4)GlcNAc(b1-6)GalNAc
# Method in brief: as §1
# [25] = target: Gal(b1-4)GlcNAc(b1-6)[Gal(b1-3)]GalNAc
# Method in brief: as §1
# [26] = target: Gal(b1-4)GlcNAc(b1-6)[Gal(b1-4)GlcNAc(b1-3)]GalNAc
# Method in brief: as §1
# Gal(b1-4)GlcNAc6P = target: Gal(b1-4)GlcNAc6P
# Method in brief: as §1
# Gal(b1-6)Gal = target: Gal(b1-6)Gal
# Method in brief: as §1
# Gal3S(b1-3)GalNAc = target: Gal3S(b1-3)GalNAc
# Method in brief: as §1
# Gal3S(b1-3)GlcNAc = target: Gal3S(b1-3)GlcNAc
# Method in brief: as §1
binder,measurement,setting,value
"CcfD (Bacteroides vulgatus), A6KYX8 (protein) MKYKNYFKSIIYLALGAFTLGSCEDFLDRQEDEKLTFDKIWESRNTTQQYWLNAMSFLPNENGSLQGDTEPYLGASDECTIAYDRQYRWINFGTWNPSQVPYYKMDHYYKGIRECNIFLQNVYKCSDPLVTKDQLDEWYWQTRFARAYYYFLMMRDYGPVFLLGDDLLDFTASTEELYRPRNTWDQCVNYVVSEMTQCAESGVVLQQSDLPAAKWGLATVGTCHAVISRLLLYSARPLFNGNKLYSTVKNPDAPDFPELSGVKLFPELDNTKWQKAAEAAKKLIDNPCYELYRAGNDNPYEDYYGVTHETWNKELIWTDRYNGLFSWGVGTVPTGVAGTAYGAVGPTQALVDAYAMNTGWYPITGYEADGTPIVEPLSGYELASELEKSSWIYPSGGWSNKADFEIEAPNMYKDREPRFYVTVFFGGNQWLHGNSATSISFAKGGNGNKSHDYPKSGYLCNRFYDHKLNSSEGQWGNITFPVFRLGEIYLNFIEAVLECKKNGVALDPSYEALAMEKWADLRKRAGLDPITSIYGQVSTEELIQLCRKERQIELAFERHRYFDTRTWMIATQTDNGKMYGMNTSCPLDAGMKGTETPDGFWERTAFETRVFQNKHYLYPFSQRELDRNKLLTQNYGW",glycan array binding signal (z-score),[1],0.414
same,glycan array binding signal (z-score),[2],0.826
same,glycan array binding signal (z-score),[3],1.07
same,glycan array binding signal (z-score),[4],-1.02
same,glycan array binding signal (z-score),[5],0.6
same,glycan array binding signal (z-score),[6],0.587
same,glycan array binding signal (z-score),[7],0.704
same,glycan array binding signal (z-score),[8],-0.363
same,glycan array binding signal (z-score),[9],0.003
same,glycan array binding signal (z-score),[10],-0.388
same,glycan array binding signal (z-score),[11],-0.647
same,glycan array binding signal (z-score),[12],0.287
same,glycan array binding signal (z-score),[13],0.262
same,glycan array binding signal (z-score),[14],-0.962
same,glycan array binding signal (z-score),[15],-0.256
same,glycan array binding signal (z-score),[16],-0.978
same,glycan array binding signal (z-score),[17],-0.226
same,glycan array binding signal (z-score),[18],-0.404
same,glycan array binding signal (z-score),[19],-0.101
same,glycan array binding signal (z-score),[20],0.186
same,glycan array binding signal (z-score),[21],-1.48
same,glycan array binding signal (z-score),[22],-0.891
same,glycan array binding signal (z-score),[23],-0.515
same,glycan array binding signal (z-score),[24],-0.62
same,glycan array binding signal (z-score),[25],-0.208
same,glycan array binding signal (z-score),[26],-0.503
same,glycan array binding signal (z-score),Gal(b1-4)GlcNAc6P,-0.586
same,glycan array binding signal (z-score),Gal(b1-6)Gal,-1
same,glycan array binding signal (z-score),Gal3S(b1-3)GalNAc,0.613
same,glycan array binding signal (z-score),Gal3S(b1-3)GlcNAc,-0.233

# Rewritten with bars between the fields: part of the list above.
binder | measurement | setting | value
CcfD (Bacteroides vulgatus), A6KYX8 (protein) MKYKNYFKSIIYLALGAFTLGSCEDFLDRQEDEKLTFDKIWESRNTTQQYWLNAMSFLPNENGSLQGDTEPYLGASDECTIAYDRQYRWINFGTWNPSQVPYYKMDHYYKGIRECNIFLQNVYKCSDPLVTKDQLDEWYWQTRFARAYYYFLMMRDYGPVFLLGDDLLDFTASTEELYRPRNTWDQCVNYVVSEMTQCAESGVVLQQSDLPAAKWGLATVGTCHAVISRLLLYSARPLFNGNKLYSTVKNPDAPDFPELSGVKLFPELDNTKWQKAAEAAKKLIDNPCYELYRAGNDNPYEDYYGVTHETWNKELIWTDRYNGLFSWGVGTVPTGVAGTAYGAVGPTQALVDAYAMNTGWYPITGYEADGTPIVEPLSGYELASELEKSSWIYPSGGWSNKADFEIEAPNMYKDREPRFYVTVFFGGNQWLHGNSATSISFAKGGNGNKSHDYPKSGYLCNRFYDHKLNSSEGQWGNITFPVFRLGEIYLNFIEAVLECKKNGVALDPSYEALAMEKWADLRKRAGLDPITSIYGQVSTEELIQLCRKERQIELAFERHRYFDTRTWMIATQTDNGKMYGMNTSCPLDAGMKGTETPDGFWERTAFETRVFQNKHYLYPFSQRELDRNKLLTQNYGW | glycan array binding signal (z-score) | [22] | -0.891
same | glycan array binding signal (z-score) | [23] | -0.515
